Source: PubChem BioAssay AID493014 (National Center for Advancing Translational Sciences (NCATS), 2011)
This is one part of the list. These are further read-outs of the screen, such as a control signal, another cell line or another target. No call is given for them. Compounds called inactive in the main read-out are mostly missing here. The note in brackets gives the kind of curve behind each potency; many fits are weak.

Assay: qHTS Assay to Find Inhibitors of Chronic Active B-Cell Receptor Signaling
Conditions: ABC-DLBCL IkBa-CBG/CBR reporter, luminescence ratio (green luciferase fused to IkBa over red control in TMD8 lymphoma cells), 4 h
Summary of the method: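 Doxycycline induced both beetle luciferases in TMD8 lymphoma cells; IKK-driven degradation limits the IkappaBalpha-fused green signal, while red luminescence normalises for cell number and nonspecific effects. Compounds tested up to 46 uM, 4 hrs.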

[1] = measured here: CBR red luminescence, cell number
[2] = measured here: IkBa-CBG green luminescence

Compound | AC50 [1] | AC50 [2]
O=C(CN1CCN(Cc2ccc3c(c2)OCO3)CC1)Nc1ccc2c(c1)OCCO2 | 13 µM [rising, partial curve, poor fit] | 
O=C(CSCc1ccco1)N1CCc2ccccc21 | 0.447 µM [rising, full curve] | 
O=C(/C=C/c1cccs1)Nc1ccc(Br)cn1 | 16.4 µM [falling, partial curve] | 20.6 µM [falling, single point]
CCC(C)Sc1nc2c([nH]c3ccccc32)c(=O)n1C (stereo not drawn) | 6.51 µM [rising, full curve, poor fit] | 
Cn1c(SCC(=O)OCc2ccccc2)nnc1-c1ccco1 | 2.31 µM [falling, full curve] | 2.91 µM [rising, full curve, poor fit]
Cc1csc(SCC(=O)NC(C)C2CC3CCC2C3)n1 (stereo not drawn) | 13 µM [rising, partial curve] | 
O=C(N/N=C/c1ccccn1)c1cc(C2CC2)[nH]n1 | 25.1 µM [falling, single point] | 
CC(=O)Nc1ccc(Nc2nc(-c3sc(NC(C)=O)nc3C)cs2)cc1 | 11.2 µM [falling, partial curve] | 
O=C(Nc1ccc(O)cc1C(=O)O)c1ccc2c(c1)C(=O)N(Cc1ccco1)C2=O | 29.1 µM [falling, single point] | 
O=[N+]([O-])c1cccc(OCC(O)CN2CCN(S(=O)(=O)c3cc(Cl)ccc3Cl)CC2)c1 (stereo not drawn) | 17.8 µM [falling, partial curve, poor fit] | 
CCn1c(C)c(/C=N/Nc2nc3ccccc3s2)c2ccccc21 | 7.08 µM [falling, partial curve, poor fit] | 
CC1(C)CC(=O)C=C(Nc2ccccc2O)C1 | 2.51 µM [falling, partial curve, poor fit] | 
Cc1csc(NC(=O)C2CCCCN2S(=O)(=O)c2ccccc2)n1 (stereo not drawn) | 31.6 µM [rising, single point] | 
O=C(c1ccco1)N1CCN=C1SCc1cccc(F)c1 | 11.6 µM [falling, partial curve, poor fit] | 
Cc1ccc(-c2nnc(Cc3ccc(Cl)cc3)o2)cc1 | 6.51 µM [falling, single point] | 
COC(=O)c1ccc(NC(=S)NCCc2cccc(C)c2)cc1 | 2.06 µM [falling, full curve] | 
COc1cc(OC)c(C2=NOC(C(=O)Nc3c(C)nn(CC(=O)N4CCCC4)c3C)C2)cc1Cl (stereo not drawn) | 10 µM [rising, partial curve] | 
COc1ccc(Nc2nnc(Cc3ccncc3)c3ccccc23)c(OC)c1 | 4.47 µM [falling, partial curve] | 
Clc1ccccc1-c1nnc2sc(-c3cccs3)nn12 | 14.1 µM [falling, single point] | 
O=C(N/N=C/c1cccc2ccccc12)c1cccc(F)c1 | 11.2 µM [falling, partial curve, poor fit] | 

Taken from the results shown (2 entries):
Compound | AC50 [1] | AC50 [2]
COC(=O)c1ccc(NC(=S)NCCc2cccc(C)c2)cc1 | 2.06 µM [falling, full curve] | 
COc1cc(OC)c(C2=NOC(C(=O)Nc3c(C)nn(CC(=O)N4CCCC4)c3C)C2)cc1Cl (stereo not drawn) | 10 µM [rising, partial curve] | 

The listing continues.

Compound | AC50 [1] | AC50 [2]
COC(=O)c1c(-c2cccc3ccccc23)csc1NC(=O)Cc1ccc(OC)c(OC)c1 | 13 µM [falling, partial curve, poor fit] | 
N#C/C(=C\c1ccc(OCc2ccc(F)cc2)cc1)C(=O)Nc1cccc(C(=O)O)c1 | 4.47 µM [rising, partial curve, poor fit] | 
COc1ccc(C(CNC(=O)COc2ccccc2OC)N(C)C)cc1OC (stereo not drawn) | 35.5 µM [rising, single point] | 
O=C(CCSc1nnc(-c2ccncc2)o1)Nc1ccc(Cl)cc1 | 3.66 µM [rising, full curve, poor fit] | 
CC(=O)C1=C(C)Nc2ncnn2C1c1ccc(C)cc1 (stereo not drawn) | 5.01 µM [rising, partial curve] | 
CCOC(=O)C1CCCN(c2ncnc3c2oc2ccccc23)C1 (stereo not drawn) |  | 14.1 µM [falling, partial curve, poor fit]
COc1ccc(OC)c(S(=O)(=O)Nc2cc3c4c(c2)CCC(=O)N4CCC3)c1 |  | 11.6 µM [falling, partial curve, poor fit]
COc1ccc(CCCC(=O)N/N=C/c2cccc(OC)c2O)cc1C | 6.51 µM [rising, single point] | 13 µM [falling, partial curve]
O=C(/C=C/c1cccc([N+](=O)[O-])c1)NCCN1C(=O)S/C(=C\c2cccnc2)C1=O | 17.8 µM [falling, partial curve, poor fit] | 
O=C(Nc1nnc(-c2ccco2)o1)c1ccc(Cl)cc1 | 10 µM [falling, partial curve] | 
O=[N+]([O-])c1cccc(S(=O)(=O)N2CCCC2)c1 | 0.82 µM [rising, full curve, poor fit] | 
Cc1ccc(NCC(=O)N/N=C\c2ccc[nH]2)cc1 | 0.112 µM [rising, full curve, poor fit] | 
Cc1nn(Cc2ccc(Cl)cc2)c(C)c1NC(=O)CCCn1nc([N+](=O)[O-])c(Cl)c1C | 29.1 µM [falling, single point] | 
CCn1cc(C(=O)NCc2ccco2)c(=O)c2cc(S(=O)(=O)N3CCCCCC3)ccc21 | 8.91 µM [falling, partial curve] | 
O=C(O)c1cc(N/N=C/c2ccc3c(c2)OCCO3)ccc1Cl | 0.651 µM [falling, full curve] | 
O=C1SCC(c2ccccc2)=NN1Cc1ccccc1 | 18.4 µM [rising, partial curve] | 
COc1ccc(OCCC(=O)OCC(=O)NC(=O)NC(C)C)cc1 | 29.1 µM [rising, single point] | 
CC(C)(C)NC(=O)NC(=O)CSc1ncc(C(F)(F)F)cc1Cl | 0.651 µM [rising, full curve, poor fit] | 
CC(C)C[C@@H]1CN=C(N)N1C[C@@H]1CCCN1C[C@@H](C(C)C)N1C[C@@H](Cc2ccccc2)N(CCCC2CCCC2)C1=N | 5.8 µM [rising, partial curve, poor fit] | 
O=C(O)CCC(=O)c1ccc2c(c1)OCCCO2 | 6.31 µM [falling, full curve] | 
